Patent publication US11426402B2, “IRE1 activating compounds for use in therapy” (The Scripps Research Institute, priority 2019, dated 2022)
Some of these results come from one statement about several compounds together.

Key:
[1] = tested on: IRE1/XBP1s signaling pathway; assay: XBP1-RLuc splicing reporter in HEK293T-REx cells; format: cell-based; conditions: relative to Tg (500 nM; 18 hr)
Description: FIG. 2A and FIG. 2B. Activation of RLuc luminescence in HEK293T-Rex cells stably expressing XBP1s-RLuc treated with 10 μM IRE1 activators in the presence or absence of IRE1 inhibitor 4 μ8c (32 μM) for 18 hr. Luminescence is shown as % signal relative to Tg treatment (500 nM; 18 hr). Error bars represent standard deviation for n=3 replicates (FIG. 2A), Activation of RLuc luminescence in HEK293T-Rex cells stably expressing XBP1s-RLuc treated with the indicated concentrations of IRE1 activator compounds for 18 hr. Luminescence is shown as % signal relative to Tg treatment (500 nM; 18 hr) Error bars represent standard deviation for n=3 replicates (FIG. 2B).
HEK293T-Rex cells incorporating either the XBP1s-Rluc or ERSE-FLuc reporters were collected by trypsinization and resuspended at a density of 500,000 cells per mL. The assay was started by dispensing 5 μL of cell suspension into each well of white, solid-bottom 1536-well plates using a flying reagent dispenser (FRD) and placed into an online incubator for 3 hr. Cells were then treated with 34 nL/well of either test compounds to give final concentrations of 5.17 μM, DMSO (low control, final concentration 0.68%, 0% activation) or 37 μM of Delta-7 thapsigargin (high control, final concentration 500 nM, 100% activation). Plates were incubated for 18 hr at 37° C., removed from the incubator and equilibrated to room temperature for 10 min. Luciferase activity was detected by addition of 5 μL of ONE-Glo reagent (Promega) to each well. After a 10 min incubation time, light emission was measured with the ViewLux reader (PerkinElmer).
The percent activation of each test compound was calculated as follows: % Activation=100*(Test Compound-Median Low Control)/(Median High Control Median Low Control). Primary screening of the 646,275 compound library at Scripps Florida yielded 10,114 hits for XBP1s Renilla Luciferase activity at ≥13.83% activation by thapsigargin. Compounds that hit in more than 7 screens (promiscuity score) were eliminated, as well as those that elicited HSP70 activation. […]

[2] = tested on: DNAJB9; format: cell-based; conditions: HEK293T, 10 μM, 4 h; Tg 500 nM
[3] = tested on: ATF6 target geneset; assay: RNAseq geneset analysis in HEK293T cells, ATF6 geneset; format: cell-based, human; conditions: 6 h

SMILES	maximal XBP1-RLuc reporter activation relative to Tg [1] [%]	DNAJB9 expression relative to Tg-treated cells [2] [%]	activation of ATF6 target geneset relative to Tg [3] [%]
CCOC(CNC(=O)C1CCCN(Cc2nc(-c3ccc(Cl)cc3)oc2C)C1)OCC (stereo not drawn) [Compound 198]	> 50	> 50	< 20
Cc1ccc(OCCN(C)C(=O)Cn2cc(NC(=O)CCOc3ccccc3)cn2)cc1 [Compound 474]	> 50	> 50	< 20
O=C(CN(Cc1ccc(Cl)cc1)S(=O)(=O)c1cccnc1)N1CCc2ccccc21 [Compound 970]	> 50	> 50	< 20
